Assay in all cases: self-oligomerization with SUV liposomes and trypsin, western blot of membrane pellet (data not shown)
A general note: Immunoblotting shows a protein as a band on a membrane.

Assay [1] addresses Cyt1Aa (SEQ ID NO: 2) (Bacillus thuringiensis) (UniProt P0A382).
Assay [2] concerns the target Cyt1Aa-A61C variant (SEQ ID NO: 6) (Bacillus thuringiensis) (UniProt P0A382).
Assay [3] concerns the target Cyt1Aa-A59C variant (SEQ ID NO: 4) (Bacillus thuringiensis) (UniProt P0A382).

Where a chain is given by its changes, count along the chain named. Numbers in names are those of the source. These are yes or no findings as the source states them, for the method shown. Some binding calls cover weakened binding; strength is not graded here.

B1: Cyt1Aa (SEQ ID NO: 2) (protein)
chain: MENLNHCPLEDIKVNPWKTPQSTARVITLRVEDPNEINNLLSINEIDNPNYILQAIMLANAFQNALVPTSTDFGDALRFSMPKGLEIANTITPMGAVVSYVDQNVTQTNNQVSVMINKVLEVLKTVLGVALSGSVIDQLTAAVTNTFTNLNTQKNEAWIFWGKETANQTNYTYNVLFAIQNAQTGGVMYCVPVGFEIKVSAVKEQVLFFTIQDSASYNVNIQSLKFAQPLVSSSQYPIADLTSAINGTL
As to B1, the binding result in assay [1] is “binds”.

B2: Cyt1Aa-A61C variant (SEQ ID NO: 6) (protein)
chain: B1 chain with A61C
As for B2, the binding entry in assay [2] was “binds”.

B3: Cyt1Aa-A59C variant (SEQ ID NO: 4) (protein)
chain: B1 chain with A59C
Regarding B3, the binding result in assay [3] is “binds”.

Source of the values: patent US20190136259A1.
